# In PubChem BioAssay AID1671190 (National Center for Advancing Translational Sciences (NCATS), 2021):
# By UniProt entry, the sequences of proteins in these tests, tags left out. Where a name states a change or a piece, a line headed by the entry shows the natural chain unless it says otherwise.
# UniProt P18054: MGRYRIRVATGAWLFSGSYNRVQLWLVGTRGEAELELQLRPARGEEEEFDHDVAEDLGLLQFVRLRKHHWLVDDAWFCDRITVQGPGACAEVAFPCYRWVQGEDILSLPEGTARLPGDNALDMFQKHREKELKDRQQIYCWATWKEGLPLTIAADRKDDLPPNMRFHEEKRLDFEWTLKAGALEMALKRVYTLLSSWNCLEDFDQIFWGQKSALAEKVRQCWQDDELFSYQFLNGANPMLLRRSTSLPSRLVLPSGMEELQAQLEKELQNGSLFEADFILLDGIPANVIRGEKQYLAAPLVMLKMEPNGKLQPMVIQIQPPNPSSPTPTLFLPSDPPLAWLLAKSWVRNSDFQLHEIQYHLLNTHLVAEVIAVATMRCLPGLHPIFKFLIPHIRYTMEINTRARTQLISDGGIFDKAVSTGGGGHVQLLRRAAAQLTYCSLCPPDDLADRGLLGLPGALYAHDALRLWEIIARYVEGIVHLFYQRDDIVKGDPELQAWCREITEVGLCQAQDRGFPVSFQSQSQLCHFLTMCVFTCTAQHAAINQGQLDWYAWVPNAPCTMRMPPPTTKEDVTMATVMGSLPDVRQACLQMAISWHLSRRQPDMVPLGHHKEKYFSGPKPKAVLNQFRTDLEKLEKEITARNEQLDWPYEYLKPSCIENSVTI
# Several values for one entry are separate records, joined by “and”; a condition that tells them apart may be missing. Equal values may be shown once. In all, about 580,000 compounds went through this assay and about 6,100 (1.1%) were called active. Inconclusive means that the source gave no clear call. Such entries were picked first, then a sample of the others. Calls follow the shape of the dose curve; as a rule, active = well fitted inhibition curve with a large enough effect; inconclusive = small, poorly fitted or top-dose-only effect, or another doubt; inactive = no such curve, though single readings can be large or run the other way. A potency beside an inconclusive call is a rough fit, not a confirmed value.
# Target: Polyunsaturated fatty acid lipoxygenase ALOX12 (Homo sapiens) (UniProt P18054)
# Assay: Primary qHTS assay for inhibitors of human arachidonate 12S-lipoxygenase (ALOX12): Round 2
# Conditions: purified 12hLO, xylenol orange hydroperoxide absorbance; activity change, negative = inhibition: at 108 µM (top of the series) unless noted
# How it was run: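 Purified human 12hLO at 150 nM in 25 mM Hepes, 0.01% Triton X-100, pH 7.0, preincubated 15 min at room temperature with compound. Reaction started with 40 uM arachidonic acid, 30 min at room temperature. Hydroperoxide measured by Fe-xylenol orange, 573/405 nm absorbance ratio.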
# % is scaled to controls: 0 for no effect and ±100 for the full control effect; potency is read from the fitted curve at half-maximal effect.
SMILES,"activity change, negative = inhibition",Potency
CC(C)C[C@@H](CN(C)N=O)N(C[C@H](Cc1ccccc1)N(CCc1ccccc1)N=O)N=O,inactive: 6.11%,–
CCOc1ccc(-n2nc(CO)c(C(=O)NCc3cccs3)n2)cc1,inactive: -18.2%,–
CCCN1C(C(C)=O)=C(OC(=O)CC)c2ccccc2S1(=O)=O,–,"inconclusive: 5.01 µM [inhibitor, full curve, poor fit]"
COc1nccc(-c2ccc(F)cc2)c1C#N,–,"inconclusive: 79.4 µM [inhibitor, single point]"
COc1cccc(-c2nc(N3CCCCC3C)c3ccccc3n2)c1O (stereo not given),inactive: 0%,–
Cn1nc(-c2ccc(N3CCCCC3)c([N+](=O)[O-])c2)c2ccccc2c1=O,inactive: -3.24%,–
C=C(C)Cn1c(Sc2nc3ccccc3[nH]2)nc2c1c(=O)[nH]c(=O)n2C,inactive: 39.5%,–
CCOC(=O)CN1CCN(c2nc3c(c(=O)[nH]c(=O)n3C)n2Cc2ccccc2F)CC1,–,"inconclusive: 5.01 µM [inhibitor, full curve, poor fit]"
O=c1[nH]cc(NCCc2ccccc2)c(=O)[nH]1,inactive: 1.85%,–
CCOP(=O)(OCC)c1nc(Cc2ccccc2)oc1NCc1ccc2c(c1)OCO2,–,"inconclusive: 100 µM [inhibitor, partial curve, poor fit]"
CC(C)(C)NC(=O)C1CC(=O)N(CCc2ccc(F)cc2)C1 (stereo not given),inactive: 7.19%,–
CC1CCCCN1C(=O)C1CCN(S(=O)(=O)c2ccc(-n3cnnn3)cc2)CC1 (stereo not given),–,"inconclusive: 112 µM [inhibitor, single point]"
CC1(C)CC(=O)C(Sc2nnc(-c3ccc(O)cc3)n2CC2CCCO2)C(=O)C1 (stereo not given),–,"inconclusive: 4.47 µM [inhibitor, full curve, poor fit]"
Cc1cccc(Oc2ccc(NC(=O)CC3Sc4ccccc4NC3=O)cc2)c1 (stereo not given),inactive: -14.6%,–
c1ccc(-c2nc(-c3ccc(-c4ccon4)s3)no2)cc1,inactive: 239%,–
Cc1ccc(C2(C(F)(F)F)NC(=O)N3N=C4CCCCCN4C3=C2C#N)cc1 (stereo not given),–,"inconclusive: 50.1 µM [inhibitor, partial curve, poor fit]"
Cc1cc2nc(/C=C/c3cccc(O)c3)sc2cc1C,–,"inconclusive: 8.91 µM [inhibitor, partial curve, poor fit]"
COCC(=O)NCCc1noc(-c2cccnc2)n1,inactive: -3.18%,–
O=C(CC(c1cccc2c1OCO2)c1c[nH]c2ccccc12)NCc1ccccc1 (stereo not given),–,"inconclusive: 22.4 µM [inhibitor, full curve]"
O=[S+]1([O-])NCC2(CCN(Cc3ccc(F)cc3)CC2)Nc2ccccc21,–,"inconclusive: 39.8 µM [inhibitor, partial curve, poor fit]"
CNC(=O)CC1C(=O)N(Cc2ccccc2)C(=S)N1NC(=O)c1cccc(F)c1 (stereo not given),inactive: -23.7%,–
Cc1ccccc1NC(=O)CSc1nc(O)cc(=O)n1C,–,"inconclusive: 126 µM [inhibitor, partial curve, poor fit]"
CC(C)=C(/C(=C/CS(=O)(=O)c1ccccc1)S(=O)(=O)c1ccccc1)S(=O)(=O)c1ccccc1,–,"inconclusive: 2.51 µM [inhibitor, full curve, poor fit]"

# Among those listed so far, 2 have a cyano group:
SMILES,"activity change, negative = inhibition",Potency
COc1nccc(-c2ccc(F)cc2)c1C#N,–,"inconclusive: 79.4 µM [inhibitor, single point]"
Cc1ccc(C2(C(F)(F)F)NC(=O)N3N=C4CCCCCN4C3=C2C#N)cc1 (stereo not given),–,"inconclusive: 50.1 µM [inhibitor, partial curve, poor fit]"

# Continued.

SMILES,"activity change, negative = inhibition",Potency
Cc1csc(SCCCOc2ccc(C#N)cc2)n1,–,"inconclusive: 39.8 µM [inhibitor, partial curve, poor fit]"
CCCCNc1nc2c(c(=O)n(C)c(=O)n2C)n1CC(O)COc1ccccc1C (stereo not given),–,inactive
O=S(=O)(Nc1nc2ccccc2nc1N1CCCCCC1)c1ccc(Cl)cc1,–,"inconclusive: 39.8 µM [inhibitor, partial curve, poor fit]"
Cc1ccc(S(=O)(=O)CC(=O)Nc2nccs2)cc1,–,"inconclusive: 15.8 µM [inhibitor, full curve]"
C=CCSc1nc(-c2ccccc2)c(C#N)c(=O)[nH]1,inactive: -9.45%,–
O=C(c1ccc(F)cc1)N1CCC(N2CCCNC2=O)CC1,–,"inconclusive: 112 µM [inhibitor, partial curve, poor fit]"
O=C(O)c1cccc(Nc2ncnc3ccc(Br)cc23)c1,–,"inconclusive: 5.01 µM [inhibitor, full curve, poor fit] and inconclusive: 112 µM [inhibitor, single point]"
Cc1nn(C)c2c1c(C(F)(F)F)cc(=O)n2CC(=O)N1CCCCC1,inactive: -16.6%,–
CCOC(=O)c1c(NC(=O)c2ccc(Br)cc2)sc2c1CCCC2,inactive: -0.145%,–
OC(CC#CCN1CCCC1)(c1ccccc1)c1ccc(-c2ccccc2)cc1 (stereo not given),–,"inconclusive: 8.91 µM [inhibitor, full curve, poor fit]"
Cc1ccc2nc(-c3cccc(NC(=O)c4ccc(Br)o4)c3)oc2c1,–,"inconclusive: 112 µM [inhibitor, partial curve, poor fit]"
CCC(C)NC(=O)N1CC(c2nc(CCOCC3CCOCC3)no2)C1 (stereo not given),inactive: 46.7%,–
Nc1cc2cccnc2cc1Cl,–,"inconclusive: 4.47 µM [inhibitor, full curve, poor fit]"
COc1ccc(NC(=O)[C@@H]2C[C@@H](c3ccc(F)cc3)N(Cc3ccccc3)C2)cc1,–,"inconclusive: 126 µM [inhibitor, partial curve, poor fit]"
COCCn1c(C)cc(C2=NNC(=Nc3ccc(Cl)cc3Cl)SC2)c1C,–,"inconclusive: 44.7 µM [inhibitor, partial curve]"
CCCCCCOc1ccc(/C=c2\s/c(=C(/C#N)C(=O)NCc3ccco3)n(-c3ccccc3)c2=O)cc1,inactive: -1.87%,–
CC(NC(=O)CC(C)(C(=O)O)c1ccccc1)c1ccc(F)c(F)c1 (stereo not given),inactive: 60.9%,–
Cc1ccc(Cl)cc1NC(=O)N1CCC(CN2CCCCCC2)CC1,–,"inconclusive: 70.8 µM [inhibitor, partial curve, poor fit]"
Cc1cc(OC(F)F)ccc1NC(=S)NCCc1ccccc1,–,"inconclusive: 17.8 µM [inhibitor, partial curve, poor fit]"
C=CCNC(=O)C1CCN(C(=O)N2CC3CC(C2)[C@H]2CCCC(=O)N2C3)CC1 (stereo not given in full),inactive: 4.25%,–
C=CCOc1cccc(NC(C)=O)c1,–,"inconclusive: 2 µM [inhibitor, full curve, poor fit]"
COCc1nnc(NC(=O)C2CC(=O)N(CCc3c[nH]c4ccc(C)cc34)C2)s1 (stereo not given),–,"inconclusive: 44.7 µM [inhibitor, partial curve, poor fit]"
